Assay [1] addresses T1, NLS-rTetR-mCherry-2xFLAG-Bub1 full length (fission yeast) (S. pombe) (UniProt O94751).
T1 sequence: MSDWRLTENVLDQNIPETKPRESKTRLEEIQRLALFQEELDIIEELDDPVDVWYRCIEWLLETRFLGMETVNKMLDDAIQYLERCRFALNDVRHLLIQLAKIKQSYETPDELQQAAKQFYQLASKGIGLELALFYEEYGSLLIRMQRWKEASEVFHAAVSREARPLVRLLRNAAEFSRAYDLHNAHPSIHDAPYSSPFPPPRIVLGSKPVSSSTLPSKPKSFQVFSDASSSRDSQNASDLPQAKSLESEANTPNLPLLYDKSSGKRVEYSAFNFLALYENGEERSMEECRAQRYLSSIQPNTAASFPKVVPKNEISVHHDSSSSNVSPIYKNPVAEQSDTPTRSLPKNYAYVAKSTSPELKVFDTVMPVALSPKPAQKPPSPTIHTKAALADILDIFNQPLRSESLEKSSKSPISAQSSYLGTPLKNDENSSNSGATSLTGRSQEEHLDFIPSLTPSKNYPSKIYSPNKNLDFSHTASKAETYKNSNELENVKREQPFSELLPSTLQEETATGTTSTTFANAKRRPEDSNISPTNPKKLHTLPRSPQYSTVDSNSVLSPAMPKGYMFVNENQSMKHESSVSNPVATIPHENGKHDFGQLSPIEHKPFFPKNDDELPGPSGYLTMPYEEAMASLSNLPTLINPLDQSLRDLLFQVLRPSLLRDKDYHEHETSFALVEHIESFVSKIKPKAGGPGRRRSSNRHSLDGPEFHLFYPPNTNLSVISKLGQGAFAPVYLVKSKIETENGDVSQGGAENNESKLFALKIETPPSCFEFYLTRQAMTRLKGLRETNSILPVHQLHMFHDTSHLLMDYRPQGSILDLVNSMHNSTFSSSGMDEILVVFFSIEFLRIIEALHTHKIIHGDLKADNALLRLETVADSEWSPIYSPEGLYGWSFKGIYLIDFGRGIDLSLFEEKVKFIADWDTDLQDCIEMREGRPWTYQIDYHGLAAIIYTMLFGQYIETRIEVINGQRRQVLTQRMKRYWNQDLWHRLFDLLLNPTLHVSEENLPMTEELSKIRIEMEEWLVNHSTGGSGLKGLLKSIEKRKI
The experiment in a line: tethering assay (co-recruitment to a tetO array, fluorescence microscopy); TetR-mCherry-Bub1 fragments tethered on a tetO array in S. pombe cells (mph1Δ bub1Δ); Mad3-GFP imaged.

Assay [2] deals with T1, NLS-rTetR-mCherry-2xFLAG-Bub1 full length (fission yeast) (S. pombe). The assay can be described thus: condition: only without thiamine wash-out (no Mph1 induction, no mitotic arrest); co-IP; as a2, but cells without thiamine wash-out (no Mph1 induction, no mitotic arrest); Figure S3A.
For assay [3] the target is unchanged. The assay can be described thus: co-IP; fission yeast lysate (50 mM HEPES pH 7.6, 75 mM KCl, 0.1% Triton X-100); anti-FLAG Dynabeads 15-20 min at 4°C, blots anti-Bub1 and anti-Mad1; cells harvested after 16 h of TetR-Mph1(303-678) induction (SynCheck).
The target in assay [4] is T2, bub1(T485A, T509A, T518A)-9myc (budding yeast) (S. cerevisiae) (UniProt P41695).
T2 sequence: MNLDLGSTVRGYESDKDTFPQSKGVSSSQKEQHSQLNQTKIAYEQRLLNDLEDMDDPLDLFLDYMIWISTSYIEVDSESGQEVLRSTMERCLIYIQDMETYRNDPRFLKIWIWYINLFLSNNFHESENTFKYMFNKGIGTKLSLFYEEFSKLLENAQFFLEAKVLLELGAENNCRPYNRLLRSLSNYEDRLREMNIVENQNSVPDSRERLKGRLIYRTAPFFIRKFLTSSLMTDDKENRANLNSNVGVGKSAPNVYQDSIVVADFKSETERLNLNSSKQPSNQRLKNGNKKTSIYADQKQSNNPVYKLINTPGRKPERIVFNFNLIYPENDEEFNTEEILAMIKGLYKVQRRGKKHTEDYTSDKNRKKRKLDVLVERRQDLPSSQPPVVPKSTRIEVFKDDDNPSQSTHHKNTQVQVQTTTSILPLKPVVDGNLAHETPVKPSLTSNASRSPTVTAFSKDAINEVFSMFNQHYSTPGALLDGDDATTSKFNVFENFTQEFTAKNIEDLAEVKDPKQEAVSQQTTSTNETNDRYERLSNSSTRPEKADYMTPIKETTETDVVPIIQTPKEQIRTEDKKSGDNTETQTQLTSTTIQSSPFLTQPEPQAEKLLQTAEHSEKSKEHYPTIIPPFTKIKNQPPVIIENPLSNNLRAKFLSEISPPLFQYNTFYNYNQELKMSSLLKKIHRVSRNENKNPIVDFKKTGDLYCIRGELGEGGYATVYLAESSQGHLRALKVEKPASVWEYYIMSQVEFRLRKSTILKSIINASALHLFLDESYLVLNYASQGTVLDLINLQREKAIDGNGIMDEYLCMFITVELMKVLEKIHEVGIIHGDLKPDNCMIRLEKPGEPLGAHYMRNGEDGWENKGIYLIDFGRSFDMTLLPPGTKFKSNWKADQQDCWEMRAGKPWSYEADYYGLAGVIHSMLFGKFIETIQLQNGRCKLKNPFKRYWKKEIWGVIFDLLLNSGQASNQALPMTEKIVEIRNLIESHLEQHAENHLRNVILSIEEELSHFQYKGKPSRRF
The experiment in a line: co-IP; budding yeast lysate in Buffer H (25 mM HEPES pH 8.0, 150 mM KCl, 0.1% NP40); anti-Flag (M2) or anti-GFP Protein G Dynabeads, 4°, 3 h; cells induced with galactose (GAL-MPS1) for 2 h; SPC105 or spc105-6A cells.

Assay [5] has as its target T3, Bub1-3FLAG (budding yeast) (S. cerevisiae) (UniProt P41695).
T3 sequence: T2 sequence with A485T, A509T, A518T
The assay is described as above.

Numbering of substitutions follows the chain as printed. These are yes or no findings as the source states them, for the method shown. For some assays here: Binding seen in cells or lysates may run through a third protein. Some results given as binding are weak or reduced against the parent protein; the word gives no strength. Where a sequence is shown, tags or fusion partners need not be part of it.

B1: Mad3-GFP (fission yeast) (protein, UniProt O59767 1-310)
chain: MEPLDAGKNWVHMDVIEQSKENIEPRKAGHSASALAKSSSRNHTEKEVAGLQKERMGHERKIETSESLDDPLQVWIDYIKWTLDNFPQGETKTSGLVTLLERCTREFVRNPLYKDDVRYLRIWMQYVNYIDEPVELFSFLAHHHIGQESSIFYEEYANYFESRGLFQKADEVYQKGKRMKAKPFLRFQQKYQQFTHRWLEFAPQSFSSNTNSVNPLQTTFESTNIQEISQSRTKISKPKFKFSVYSDADGSGKDGQPGTWQTLGTVDQRRKENNISATSWVGEKLPLKSPRKLDPLGKFQVHCDEEVSKE
With B1, the binding entry in assay [1] is reported as “binds”.

B2: Mad1 (fission yeast) (protein, UniProt P87169 1-676)
chain: MADSPRDPFQSRSQLPRFLATSVKKPNLKKPSVNSANETKNPKLASLEFQLENLKNDLKRKELEFEREQIELQRKLAEEHEQKNSLQLRLTLVEKQLEEQSTSYQKEIEEVRNEKEATQVKIHELLDAKWKEIAELKTQIEKNDQALSEKNHEVMVSNQALQMKDTNLTNLEKLFADSREQLETKCKELAAAEQQLQELSVHNQQLEESIKQVSSSIELEKINAEQRLQISELEKLKAAQEERIEKLSSNNRNVEILKEEKNDLESKLYRFEEYRDKVATLELENEKIQTELNSWKSLITNELPTPEAVSNKLVFLQNTNANLGERVSSLESQLSNKPANQPLGANEKDAAHITELETKLKELHEQNRRLQRQKSLATQEIDLLRENLKSYDDEEAILSEKNTDMKKLERIEGLVKLVDEYKLKLESMPVSLDVDETSDEVSLQKRRRKNEHKDAGYVTELYRKNQHLLFQVKEKTNIEAFLREQIITLESSIATLRQELAQVTEINSCRVLQHRSNPTLKYERIKAAQLEMLNAENSALKALLEDKKVDCLPIQSFKIAERKALDLKKEVAEREKRIQRLKEIFSVKSLEFREAVFSLFGYKLDFMPNGSVRVTSTYSREDNTAFIFDGESSTMKLVGNPSGPEFERLIRFWCDERKTIPGMLAALTLELLDKND
With B2, the binding entry in assay [2] is “no binding”; in assay [3] it was “binds”.

B3: Mad1-3GFP (budding yeast) (protein, UniProt P40957 1-749)
chain: MDVRAALQCFFSALSGRFTGKKLGLEIYSIQYKMSNSGGSSPFLESPGGSPDVGSTNGQSNRQIQALQFKLNTLQNEYEIEKLQLQKQTNILEKKYKATIDELEKALNDTKYLYESNDKLEQELKSLKERSANSMNDKDKCIEELRTTLQNKDLEMETLRQQYDSKLSKVTNQCDHFKLEAESSHSLLMKYEKEIKRQSVDIKDLQHQVMEKDDELSSVKASKMINSHPNYSTEEFNELTEMNKMIQDQVQYTKELELANMQQANELKKLKQSQDTSTFWKLENEKLQNKLSQLHVLESQYENLQLENIDLKSKLTKWEIYNDSDDDDDNNVNNNDNNNNNKNDNNNDNNNDTSNNNNINNNNRTKNNIRNNPEEIIRDWKLTKKECLILTDMNDKLRLDNNNLKLLNDEMALERNQILDLNKNYENNIVNLKRLNHELEQQKSLSFEECRLLREQLDGLYSAQNNALLEVENSETHASNKNVNEDMNNLIDTYKNKTEDLTNELKKLNDQLLSNSNDVETQRKKRKLTSDQIGLNYSQRLNELQLENVSVSRELSKAQTTIQLLQEKLEKLTKLKEKKIRILQLRDGPFIKDQFIKKNKLLLLEKENADLLNELKKNNPAVETVPISVYDSLNFELKQFEQEVFKSNKRFSRLKQVFNNKSLEFIDVVNSLLGFKLEFQQDSRVKIFSCFKPEKYLIADLNENTLKSNLDADIEGWDDLMNLWVEDRGQLPCFLATITLRLWEQRQAK
As to B3, the binding result is “no binding” in assay [4] and “binds” in assay [5].

(Values after publication PMC6657678, “The Bub1-TPR Domain Interacts Directly with Mad3 to Generate Robust Spindle Checkpoint Arrest” (Current Biology, 2019).)
